Values from PubChem BioAssay AID1259405 (NCATS, 2018).
Test: 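Silenced genes that increase secreted GFP made by CHO cells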 (primary screen). System: Chinese hamster CHO-K1 ovary cells with stable secreted eGFP expression. Reagent: single siRNA against mouse genes, 0.8 pmol siRNA per well (2 µl of 400 nM stock). Duration: 3 days. Measurement: 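Percent of the per-plate non-targeting control median for intracellular GFP per well by laser scanning cytometry and for cell viability by ATP luminescence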. Reading the numbers: GFP, % of control: higher = more GFP per well, higher productivity; viability (ATP), % of control: higher = more viable cells (more ATP). Call rule: 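Called active when intracellular GFP, relative to negative control, is at or above 120%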.
This is an unselected part of about 50,000 reagents tested. In the full data, about 4,000 (8%) were called active. 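Mouse siRNA library applied to hamster cells; one well for each siRNA.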 Reagents against one gene are numbered here.

6430571L13Rik (GeneID 235599) #1
- GFP, % of control: 96.3
- viability (ATP), % of control: 49.7
- call: inactive

6430571L13Rik (GeneID 235599) #2
- GFP, % of control: 70.2
- viability (ATP), % of control: 82.9
- call: inactive

6430571L13Rik (GeneID 235599) #3
- GFP, % of control: 109
- viability (ATP), % of control: 121
- call: inactive

Ppp6r3 (GeneID 52036) #1
- GFP, % of control: 110
- viability (ATP), % of control: 82.1
- call: inactive

Ppp6r3 (GeneID 52036) #2
- GFP, % of control: 60.4
- viability (ATP), % of control: 71.3
- call: inactive

Ppp6r3 (GeneID 52036) #3
- GFP, % of control: 86.6
- viability (ATP), % of control: 87.6
- call: inactive

Sema5a (GeneID 20356) #1
- GFP, % of control: 59.4
- viability (ATP), % of control: 57.6
- call: inactive

Sema5a (GeneID 20356) #2
- GFP, % of control: 66.2
- viability (ATP), % of control: 85.4
- call: inactive

Sema5a (GeneID 20356) #3
- GFP, % of control: 101
- viability (ATP), % of control: 107
- call: inactive

Pmf1 (GeneID 67037) #1
- GFP, % of control: 75.9
- viability (ATP), % of control: 61.3
- call: inactive

Pmf1 (GeneID 67037) #2
- GFP, % of control: 77
- viability (ATP), % of control: 61.2
- call: inactive

Pmf1 (GeneID 67037) #3
- GFP, % of control: 46.5
- viability (ATP), % of control: 78.2
- call: inactive

Myog (GeneID 17928) #1
- GFP, % of control: 88.4
- viability (ATP), % of control: 86.5
- call: inactive

Myog (GeneID 17928) #2
- GFP, % of control: 94.1
- viability (ATP), % of control: 60.2
- call: inactive

Myog (GeneID 17928) #3
- GFP, % of control: 75.4
- viability (ATP), % of control: 126
- call: inactive

Helb (GeneID 117599) #1
- GFP, % of control: 68.7
- viability (ATP), % of control: 74.8
- call: inactive

Helb (GeneID 117599) #2
- GFP, % of control: 57
- viability (ATP), % of control: 59
- call: inactive

Helb (GeneID 117599) #3
- GFP, % of control: 113
- viability (ATP), % of control: 82.6
- call: inactive

Slc7a2 (GeneID 11988) #1
- GFP, % of control: 75.9
- viability (ATP), % of control: 31.5
- call: inactive

Slc7a2 (GeneID 11988) #2
- GFP, % of control: 58.3
- viability (ATP), % of control: 62.3
- call: inactive

Slc7a2 (GeneID 11988) #3
- GFP, % of control: 103
- viability (ATP), % of control: 76.3
- call: inactive

Rab37 (GeneID 58222) #1
- GFP, % of control: 79.7
- viability (ATP), % of control: 55.3
- call: inactive

Rab37 (GeneID 58222) #2
- GFP, % of control: 102
- viability (ATP), % of control: 55.8
- call: inactive

Rab37 (GeneID 58222) #3
- GFP, % of control: 86.5
- viability (ATP), % of control: 75.5
- call: inactive

H2-Ob (GeneID 15002) #1
- GFP, % of control: 64.5
- viability (ATP), % of control: 47.2
- call: inactive

H2-Ob (GeneID 15002) #2
- GFP, % of control: 98.9
- viability (ATP), % of control: 99
- call: inactive

H2-Ob (GeneID 15002) #3
- GFP, % of control: 81.3
- viability (ATP), % of control: 79.9
- call: inactive
